From publication PMC8384837
Changes are numbered by the printed parent chain. This is one part of the list. For some of these results: At the low end of the ranking, values are background and their order means little. For some of these results: The source does not settle which construct or isoform was used.

Legend:
Conditions in all cases: yeast three-hybrid, YBZ-1, SC-Leu-His + 0.5 mM 3-AT, 4 days
[1] = target: T1, PUM1 PUF domain R1-QFR R2-VFQ R7-NPG S863Q + R864F + Q867R + N899V + Y900F + S1079N + N1080P + E1083G (UniProt Q14671)
T1 sequence: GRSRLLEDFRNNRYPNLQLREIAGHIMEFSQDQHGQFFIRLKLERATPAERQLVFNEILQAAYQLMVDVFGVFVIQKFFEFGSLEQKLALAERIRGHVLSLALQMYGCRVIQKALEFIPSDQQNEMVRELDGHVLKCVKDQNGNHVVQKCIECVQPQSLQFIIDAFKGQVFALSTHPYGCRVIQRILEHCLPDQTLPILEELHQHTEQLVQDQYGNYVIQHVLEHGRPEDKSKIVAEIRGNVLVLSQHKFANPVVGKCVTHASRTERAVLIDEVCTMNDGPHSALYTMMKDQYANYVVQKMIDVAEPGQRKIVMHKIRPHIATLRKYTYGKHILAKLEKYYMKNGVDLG

[2] = target: T2, PUM1 PUF domain R3-THE R4-TFR C935T + R936H + Q939E + N971T + H972F + Q975R (UniProt Q14671)
T2 sequence: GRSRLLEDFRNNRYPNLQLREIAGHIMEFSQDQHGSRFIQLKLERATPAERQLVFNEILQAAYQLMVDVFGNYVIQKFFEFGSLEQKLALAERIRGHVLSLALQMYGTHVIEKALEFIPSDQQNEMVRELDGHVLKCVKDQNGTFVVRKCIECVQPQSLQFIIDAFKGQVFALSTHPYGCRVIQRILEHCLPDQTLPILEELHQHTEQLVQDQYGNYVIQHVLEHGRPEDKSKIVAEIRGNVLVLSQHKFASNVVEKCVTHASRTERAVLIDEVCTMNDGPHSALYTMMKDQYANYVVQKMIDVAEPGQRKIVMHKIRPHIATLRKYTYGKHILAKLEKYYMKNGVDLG

[3] = target: T3, PUM1 PUF domain R3-THE R4-TFR R7-NPG C935T + R936H + Q939E + N971T + H972F + Q975R + S1079N + N1080P + E1083G (Homo sapiens) (UniProt Q14671)
T3 sequence: T2 sequence with S252N, N253P, E256G

[4] = target: T4, PUM1 PUF domain R5-PHQ R6-SWD C1007P + R1008H + N1043S + Y1044W + Q1047D (UniProt Q14671)
T4 sequence: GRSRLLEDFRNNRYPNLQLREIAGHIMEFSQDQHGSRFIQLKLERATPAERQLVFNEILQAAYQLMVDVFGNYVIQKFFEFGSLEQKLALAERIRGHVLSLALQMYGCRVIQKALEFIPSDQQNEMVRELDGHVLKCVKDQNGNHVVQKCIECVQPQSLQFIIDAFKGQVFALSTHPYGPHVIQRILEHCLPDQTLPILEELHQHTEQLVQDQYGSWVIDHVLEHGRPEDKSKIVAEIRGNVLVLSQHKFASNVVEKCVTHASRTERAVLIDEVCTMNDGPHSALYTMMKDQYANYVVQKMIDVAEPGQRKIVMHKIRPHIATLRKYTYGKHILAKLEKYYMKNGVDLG

[5] = target: T5, PUM1 PUF domain R6-SWD R7-NPG N1043S + Y1044W + Q1047D + S1079N + N1080P + E1083G (Homo sapiens) (UniProt Q14671)
T5 sequence: T4 sequence with P180C, H181R, S252N, N253P, E256G

| Sequence | binding signal (log2 enrichment (interaction score)) [1] | binding signal (log2 enrichment (interaction score)) [2] | binding signal (log2 enrichment (interaction score)) [3] | binding signal (log2 enrichment (interaction score)) [4] | binding signal (log2 enrichment (interaction score)) [5] |
| --- | --- | --- | --- | --- | --- |
| GGCUAGAACUAGUGGAUCCCCCGGCGCCCGGCGGCUCGAGCCCGGGUAAGUUUGCACAGUCUGCAUGCCGCCGGGCGCCAUGCCUGCAGGUCGACUCUAGAAAACAUG | < -6.27 | -7.72 | – | – | – |
| GGCUAGAACUAGUGGAUCCCCCGGCGCCCGGCGGCUCGAGCCCGGGUAAGAUUGCGUGGUCUGCAUGCCGCCGGGCGCCAUGCCUGCAGGUCGACUCUAGAAAACAUG | -7.4 | -6.67 | – | – | – |
| GGCUAGAACUAGUGGAUCCCCCGGCGCCCGGCGGCUCGAGCCCGGGUAAGUCGACCACGUCUGCAUGCCGCCGGGCGCCAUGCCUGCAGGUCGACUCUAGAAAACAUG | -3.47 | -6.56 | – | – | – |
| GGCUAGAACUAGUGGAUCCCCCGGCGCCCGGCGGCUCGAGCCCGGGUAAGUGGACGGAGUCUGCAUGCCGCCGGGCGCCAUGCCUGCAGGUCGACUCUAGAAAACAUG | -4.96 | -5.34 | – | – | – |
| GGCUAGAACUAGUGGAUCCCCCGGCGCCCGGCGGCUCGAGCCCGGGUAAGUGUCAGUAGUCUGCAUGCCGCCGGGCGCCAUGCCUGCAGGUCGACUCUAGAAAACAUG | -5.01 | -7.06 | -1.39 | < -7.89 | – |
| GGCUAGAACUAGUGGAUCCCCCGGCGCCCGGCGGCUCGAGCCCGGGUAAGAAGACAUGGUCUGCAUGCCGCCGGGCGCCAUGCCUGCAGGUCGACUCUAGAAAACAUG | -5.79 | -7.25 | – | < -7.19 | – |
| GGCUAGAACUAGUGGAUCCCCCGGCGCCCGGCGGCUCGAGCCCGGGUAAGUUUACAGAGUCUGCAUGCCGCCGGGCGCCAUGCCUGCAGGUCGACUCUAGAAAACAUG | -6.9 | -7 | -1.72 | -7.35 | -1.32 |
| GGCUAGAACUAGUGGAUCCCCCGGCGCCCGGCGGCUCGAGCCCGGGUAAGUGGCAAUUGUCUGCAUGCCGCCGGGCGCCAUGCCUGCAGGUCGACUCUAGAAAACAUG | -6.79 | < -7.09 | – | -7.8 | – |
| GGCUAGAACUAGUGGAUCCCCCGGCGCCCGGCGGCUCGAGCCCGGGUAAGUAUACGUCGUCUGCAUGCCGCCGGGCGCCAUGCCUGCAGGUCGACUCUAGAAAACAUG | -4.54 | -6.09 | – | – | – |

Looked up above:
Entry for GGCUAGAACUAGUGGAUCCCCCGGCGCCCGGCGGCUCGAGCCCGGGUAAGUGGCAAUUGUCUGCAUGCCGCCGGGCGCCAUGCCUGCAGGUCGACUCUAGAAAACAUG under binding signal (log2 enrichment (interaction score)) [4]: -7.8
Entry for GGCUAGAACUAGUGGAUCCCCCGGCGCCCGGCGGCUCGAGCCCGGGUAAGUGUCAGUAGUCUGCAUGCCGCCGGGCGCCAUGCCUGCAGGUCGACUCUAGAAAACAUG under binding signal (log2 enrichment (interaction score)) [1]: -5.01
